Measured values from PubChem BioAssay AID1259354 (Paczesny and Yang Labs, IUPUI and University of Michigan, 2018).
Screen size: about 78,000 compounds; about 1,800 (2.3%) were called active. This list was built around the results that the source calls inconclusive (neither active nor inactive); the mix of calls is not that of the screen. No stated cut-off is given here; in the data, active means inhibition above about 30%; inconclusive means mostly about 10% to 28%; inactive means weaker than that. A structure can be active in one record and inactive in another.

Sequences of proteins named here, by UniProt entry; tags and fusion partners are left off. A change or cut given only in a name is not applied to a line headed by its entry.
UniProt Q01638: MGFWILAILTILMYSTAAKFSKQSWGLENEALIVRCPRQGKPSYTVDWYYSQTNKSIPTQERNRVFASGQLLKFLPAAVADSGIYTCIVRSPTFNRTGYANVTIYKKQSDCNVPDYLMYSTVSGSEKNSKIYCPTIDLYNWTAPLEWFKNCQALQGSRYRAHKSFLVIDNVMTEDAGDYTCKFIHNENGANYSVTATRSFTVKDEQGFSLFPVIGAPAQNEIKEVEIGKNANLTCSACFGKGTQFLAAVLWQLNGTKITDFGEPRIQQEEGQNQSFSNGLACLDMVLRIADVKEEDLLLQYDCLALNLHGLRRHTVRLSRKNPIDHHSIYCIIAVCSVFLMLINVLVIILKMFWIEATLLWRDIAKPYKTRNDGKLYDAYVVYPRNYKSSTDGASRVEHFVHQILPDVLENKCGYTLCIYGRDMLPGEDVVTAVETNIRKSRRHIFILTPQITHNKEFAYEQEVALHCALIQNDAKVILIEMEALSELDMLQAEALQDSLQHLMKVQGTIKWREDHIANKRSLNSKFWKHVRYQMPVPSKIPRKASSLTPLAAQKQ

Each compound was assayed against Interleukin-1 receptor-like 1 (Homo sapiens) (UniProt Q01638) (assay: blocks human ST2 binding to IL-33, primary screen, biochemical, AlphaLISA (AID 1259354)). Conditions: AlphaLISA ST2-Fc/biotin-IL-33 interaction, 1 h; at 17 µM, active compounds read high.
With `C=CC[C@@H]1CC=C[C@@H](C)N1CC(=O)Nc1ccc(N(C)C(C)=O)cc1` the inhibition was inconclusive: 18%. For `COc1ccc(N=c2scc(-c3ccc(OC)cc3)n2CCN2CCOCC2)cc1`, the inhibition was inconclusive: 25%. For `CC(C)N1C(=O)[C@@H]2CN(C(=O)C3CCCC3)CCN2C1=O`, the inhibition was “inactive”. `O=C(CC[C@@H]1CNC(=O)[C@@H]2C[C@H](NC(=O)C3CC3)CN12)NCc1cccs1` was tested, and the inhibition was inconclusive: 13%. `CCOc1cc(CN2CCc3ccccc3C2)ccc1OC` was tested, and the inhibition was “inactive”. In the case of `Cn1c(=O)c2c(SCC(=O)NCCc3ccccc3)nc(-c3cccs3)nc2n(C)c1=O`, the inhibition is reported as “inactive”. With `COc1ccc(CN2CCC3(CC2)N=C(c2ccc(Cl)cc2)NC3=O)cc1` the inhibition was inconclusive: 10%. For `Cc1nc2ccc(CC(=O)N3CCC(O)(CO)CC3)cc2[nH]1`, the inhibition was inconclusive: 18%. For `CC(C(=O)NCC(C)(C)N1CCOCC1)N(c1ccccc1)S(C)(=O)=O` (centres undefined), the inhibition was inconclusive: 10%. For `Cc1nc(CC(=O)N2CCc3nnc(CCc4ccccc4)n3CC2)c(C)s1`, the inhibition was “inactive”. With `COc1cc(NC(=O)C2c3ccccc3C(=O)N3CCc4ccccc4C23)cc(OC)c1OC` (centres undefined) the inhibition was “inactive”. In the case of `COc1ccc(/C=C2/C(C)=C(C#N)c3nc(N)c(C#N)c(C)c32)c(OC)c1`, the inhibition is reported as active: 43%. For `O=C(CSc1nc2c(c(=O)n1-c1ccccc1)SCC2)N1CCCCC1`, the inhibition was inconclusive: 10%. For `O=C(C1CC1)N1CCc2cc(S(=O)(=O)NCC3CCCO3)ccc21` (centres undefined), the inhibition was “inactive”. In the case of `Cc1ccc(-n2c(SCC(=O)Nc3ccc(C)cc3C)nc3c(c2=O)SCC3)cc1`, the inhibition is reported as inconclusive: 12%. With `Cc1cccc(-c2nc(NCc3ccc4c(c3)OCO4)c3ccccc3n2)c1` the inhibition was “inactive”. In the case of `COc1cccc(NC(=O)CCC2CCN(C(=O)c3cnsn3)CC2)c1`, the inhibition is reported as “inactive”. In the case of `CC1(C)C(=O)OC(c2cccc(Br)c2)C(C)(C)C1=O` (centres undefined), the inhibition is reported as “inactive”. For `CCC1CCc2c(sc(N)c2C#N)C1` (centres undefined), the inhibition was inconclusive: 21%. In the case of `COCCCNC1=CC(=O)CC(c2ccccc2)C1` (centres undefined), the inhibition is reported as “inactive”. With `CN(C)c1nc2ncnc(SCC(=O)Nc3ccccc3)c2s1` the inhibition was “inactive”. `O=C(COc1ccc(Cl)cc1Cl)NCCOC12CC3CC(CC(C3)C1)C2` was tested, and the inhibition was inconclusive: 15%. With `CN1C(=O)/C(=c2\sc3nc(=O)c(Cc4ccccc4)nn3c2=O)c2ccccc21` the inhibition was inconclusive: 16%. With `N#Cc1c(NC(=O)c2noc3c2CCc2ccccc2-3)sc2c1CCC2` the inhibition was inconclusive: 10%. In the case of `CC(=O)c1cc(C(C)(C)C)sc1C(C)(C)C`, the inhibition is reported as “inactive”. `CS(=O)(=O)N1CCC(NCc2cnn(Cc3ccccc3)c2)CC1` was tested, and the inhibition was inconclusive: 14%. In the case of `Cc1nc(N2C(=O)C(O)=C(C(=O)c3cccs3)C2c2ccccc2F)sc1C` (centres undefined), the inhibition is reported as “inactive”. In the case of `O=C(Nc1cccc2nsnc12)c1ccccc1Cl`, the inhibition is reported as inconclusive: 20%. With `Cc1nnc2n1N=C(c1ccc(Cl)cc1)CS2` the inhibition was active: 39% and the outcome was “inactive”. In the case of `Cc1ccc2c(C)nc(N3CCCC(C(=O)N4CCC(Oc5ccccc5F)CC4)C3)nc2c1` (centres undefined), the inhibition is reported as “inactive”. With `CCCn1ncc(C(=O)N(C)Cc2nc3ccsc3c(=O)[nH]2)c1C` the inhibition was inconclusive: 10%. `CC(C)CN(CC(C)C)S(=O)(=O)c1ccc2c(c1)CCN2C(=O)C1CC1` was tested, and the inhibition was “inactive”. For `Cc1ccc(OCc2cc(=O)n3oc(C)cc3n2)c(NC(=O)c2ccccc2F)c1`, the inhibition was inconclusive: 12%. With `O=C(c1ccc(F)c(F)c1)N1CCN=C1SCc1cccnc1` the inhibition was “inactive”. With `NC(=O)C1CCN(C(=O)c2ccccc2NC(=O)c2nsc3ccccc23)CC1` the inhibition was inconclusive: 15%. `CC(C)C(NC(=O)C1CCCCC1)C(=O)Nc1ccc(F)c(Cl)c1` (centres undefined) was tested, and the inhibition was “inactive”. In the case of `COc1cc(/C(C#N)=C/c2ccc(Cl)cc2)c([N+](=O)[O-])cc1OC`, the inhibition is reported as inconclusive: 23%. For `COc1ccc(N2CC(O)=C(c3nc4ccccc4c(=O)[nH]3)C2=N)c(OC)c1`, the inhibition was inconclusive: 16%. For `O=C(CSc1nnc(Cc2cc(=O)[nH]c(=O)[nH]2)n1-c1ccccc1)N1CCCCCC1`, the inhibition was inconclusive: 12%. In the case of `Cc1ccn2c(=O)cc(COc3cccc(NC(=O)CC(C)C)c3)nc2c1`, the inhibition is reported as “inactive”. With `O=C(Nc1ccnn1C1CCN(C(=O)Cc2c(F)cc(F)cc2F)CC1)C1CCOC1` (centres undefined) the inhibition was inconclusive: 17%. With `CC(C)=CCC[C@](C)(O)[C@H]1CC[C@]2(C)[C@@H]1[C@H](O)CC1[C@@]3(C)CC[C@H](O)C(C)(C)[C@@H]3[C@@H](O[C@@H]3O[C@H](CO)[C@@H](O)[C@H](O)[C@H]3O[C@@H]3O[C@H](CO)[C@@H](O)[C@H](O)[C@H]3O)C[C@]12C` (some centres undefined) the inhibition was inconclusive: 10%. For `Cc1cc(NC(=O)c2ccccc2F)nc2c1c(=O)oc1ccccc12`, the inhibition was inconclusive: 27%. `COc1ccc(Cl)cc1NC1OC(=O)c2ccccc21` (centres undefined) was tested, and the inhibition was “inactive”. `CCCn1nccc1C(=O)NC1CC(=O)N(CCc2ccccc2)C1` (centres undefined) was tested, and the inhibition was inconclusive: 10%. For `CC1(C)CC(=O)C2=C(C1)OC(N)=C(C#N)C2c1ccc(Cl)c(Cl)c1` (centres undefined), the inhibition was inconclusive: 17%. For `COc1cc(NC(=O)c2ccc([N+](=O)[O-])c(C)c2)ccc1NC(=O)c1ccco1`, the inhibition was “inactive”. In the case of `Cc1ccc(OCc2cc(=O)n3oc(C)cc3n2)c(NC(=O)c2cccc(Br)c2)c1`, the inhibition is reported as “inactive”. In the case of `Cc1ccccc1C1=N/C(=C\c2ccccc2)C(=O)O1`, the inhibition is reported as active: 33%. With `O=[N+]([O-])c1ccc(CN2CCC(O)CC2)cc1` the inhibition was inconclusive: 24%. For `C#CCOc1ccc(C=C2C(=O)OC(c3ccccc3)OC2=O)cc1` (centres undefined), the inhibition was inconclusive: 14%. For `COc1cc2c(cc1C(=O)N1CCOC(c3ccc(Cl)cc3)C1)CCC2` (centres undefined), the inhibition was inconclusive: 20%. `CCn1nc(C)c(CCNc2cc(OC)ncn2)c1C` was tested, and the inhibition was inconclusive: 25%. With `CCOc1cc(C2C(C#N)=C(N)OC3=C2C(=O)CC(c2ccccc2)C3)ccc1OC` (centres undefined) the inhibition was “inactive”. `COCCNC(=O)c1cc(N2CCC3(CCCN(C)C3=O)C2)ccn1` (centres undefined) was tested, and the inhibition was inconclusive: 10%. `N#CC1=C(N)C(C#N)(C#N)[C@@H](c2cccs2)[C@@H]2CCCC=C12` was tested, and the inhibition was inconclusive: 13%. With `CCCNCc1cccc(-c2ccc(C(N)=O)cc2)c1` the inhibition was “inactive”. For `COC(=O)c1c(NC(=O)CCc2ccccc2)sc2c1CCN(C(C)C)C2`, the inhibition was inconclusive: 12%. `CCCC(=N)C1=C(O)CC(CC(C)SCC)CC1=O` (centres undefined) was tested, and the inhibition was inconclusive: 12%. With `COc1ccc(-c2cc(N3CCN(S(=O)(=O)c4ccccc4)CC3)ncn2)cc1` the inhibition was inconclusive: 10%. For `CCCCOc1ccc(C(=O)Nc2ccc(N3CCCC3=O)cc2)cc1`, the inhibition was inconclusive: 21%. `Nc1[nH]nc2nc(N3CCCCCC3)nc(-c3ccccc3)c12` was tested, and the inhibition was “inactive”. For `CC[C@H]1CN(S(=O)(=O)c2ccc(OC)cc2)CC[C@H]1CC(=O)NCc1cccnc1`, the inhibition was inconclusive: 14%. With `CN(C)c1ncc(CN2CCC(n3nccc3NC(=O)C3CCCC3)CC2)s1` the inhibition was “inactive”. In the case of `CCOc1ncccc1C(=O)N1[C@@H]2CC[C@H]1CNC(=O)C2`, the inhibition is reported as inconclusive: 12%. With `O=[N+]([O-])c1ccc(C2Nc3ccccc3-c3nc4ccccc4n32)cc1` (centres undefined) the inhibition was “inactive”. With `C=CCOc1ccc(C=Nc2ccccc2OC)c(OCC=C)c1` the inhibition was inconclusive: 25%. With `CCCCNC(=O)Cn1cnc2sc3c(c2c1=O)CCCC3` the inhibition was “inactive”. `O=C(Nc1cccc(-c2nc3ccccc3o2)c1)c1ccccc1I` was tested, and the inhibition was inconclusive: 14%. `COc1cccc(C(=O)Oc2ccc(N3C(=O)C4C5CCC(C5)C4C3=O)cc2)c1` (centres undefined) was tested, and the inhibition was “inactive”. In the case of `O=C(Nc1ccccc1[N+](=O)[O-])c1ccccc1`, the inhibition is reported as inconclusive: 22%. With `CCc1cccc(CC)c1NS(=O)(=O)c1ccc(Cl)cc1` the inhibition was “inactive”. In the case of `CCCOc1ccc2oc(=O)c3c(c2c1)CCCN3C(=O)CN1CCOCC1`, the inhibition is reported as “inactive”. In the case of `N#CCSC1=Nc2ccccc2C2=NC(CCC(=O)NCc3ccc(F)cc3)C(=O)N12` (centres undefined), the inhibition is reported as inconclusive: 12%. In the case of `CN(CC(=O)N1CCN(c2ccccc2)CC1)S(=O)(=O)c1ccc(Br)cc1`, the inhibition is reported as “inactive”. For `COc1cc(CN2CCN(C/C=C/c3ccccc3)CC2)cc(OC)c1OC`, the inhibition was inconclusive: 10%. In the case of `O=[N+]([O-])c1cccc(CN2CCCC(O)C2)c1` (centres undefined), the inhibition is reported as inconclusive: 15%. With `COc1cccc(NC(=O)NC[C@H]2O[C@@H](CO)[C@@H](O)[C@H]2N2CCN(c3ccc(F)cc3)CC2)c1` the inhibition was inconclusive: 20%. `COCc1nc(CN2CCOC(c3ccc(Cl)cc3)C2)no1` (centres undefined) was tested, and the inhibition was inconclusive: 11%. `O=C1OC(c2ccc(Cl)cc2)=N/C1=C\N1CCCCC1` was tested, and the inhibition was inconclusive: 27%. For `Cc1ccc(NC2=NC3(CCCC3)N=C(N)N2)c(C)c1`, the inhibition was inconclusive: 11%. For `Cc1ccc(N=Cc2c(NCc3ccco3)nc3c(C)cccn3c2=O)cc1`, the inhibition was inconclusive: 16%. For `O=C(CSCc1ccc([N+](=O)[O-])cc1)NCC1CCCO1` (centres undefined), the inhibition was inconclusive: 11%. `CCc1c(C)nc2ncnn2c1Sc1ccccc1NC(=O)Nc1cccc(Cl)c1` was tested, and the inhibition was inconclusive: 22%. In the case of `COC1(c2ccccc2)CCN(S(=O)(=O)NCc2ccccc2)CC1`, the inhibition is reported as “inactive”. In the case of `CCOC(=O)c1ccc(NS(=O)(=O)c2c(C)[nH]c(=O)[nH]c2=O)cc1`, the inhibition is reported as “inactive”. In the case of `CCOC(=O)C1(Cc2cccc(Cl)c2)CCCN(Cc2nccn2CC)C1` (centres undefined), the inhibition is reported as “inactive”. In the case of `Cc1nc(-c2cccnc2)ncc1C(=O)N(Cc1ccsc1)CC(C)C`, the inhibition is reported as inconclusive: 28%. For `CN1CCN(CCCNC(=O)c2cc3c(-c4ccc(Cl)cc4)nn(C)c3s2)CC1`, the inhibition was inconclusive: 23%. In the case of `CC(C)C(=O)NCCSc1c[nH]c2ccccc12`, the inhibition is reported as inconclusive: 15%. In the case of `CCOC(=O)C1(C/C=C/c2ccccc2)CCCN(C(=O)Cn2cccn2)C1` (centres undefined), the inhibition is reported as inconclusive: 18%. In the case of `CCC(CO)Nc1ncnc2c1cnn2-c1ccccc1` (centres undefined), the inhibition is reported as inconclusive: 10%. For `CCOC(=O)C1(C/C=C/c2ccccc2)CCCN(C(=O)c2sc(C)nc2C)C1` (centres undefined), the inhibition was inconclusive: 15%.
